Results reported in patent EP4748860A1 (Kanglitai Biomedical (Qingdao) Co., Ltd., dated 2026).
No constants are given. Whether binding was seen depends on the method and setting. Some binding calls cover weakened binding; strength is not graded here.

B1: HER2-10 (VHH, not shown: small tags and cut ends)
VHH: QVQLQESGGGLVQPGGSLRLSCTAARNIFGRNVMGWFRQAPGKQREFVAHITGGSAVIYATSVKGRFTISRDNAKNTVYLQMNNLTLDDTAVYFCRAVNDDLWGQGTQVTVSS
B2: HER2-10-hFc (Fc fusion)
chain: B1 VHH
notes: VHH gene cloned into pABG1-Fc (human Fc fragment), expressed in FreeStyle 293-F cells, Protein A purified; also called HER2-10-Fc; not shown: human Fc fragment of vector pABG1-Fc
B3: HER2-8 (VHH, not shown: small tags and cut ends)
VHH: QVQLQESGGGLVQAGGSLRLSCAASGRTFSGAGVGWFRQDPEKEREFVAAIAWSGGSTRYADSVKGRFTISRDNTENTVFLQMNNLRPEDTAVYYCAATRRFYSGLTYTQRDVYDNWGQGTQVTVSS
B4: HER2-8-hFc (Fc fusion)
chain: B3 VHH
notes: VHH gene cloned into pABG1-Fc (human Fc fragment), expressed in FreeStyle 293-F cells, Protein A purified; also called HER2-8-Fc; not shown: human Fc fragment of vector pABG1-Fc
B5: HER2-38 (VHH, not shown: small tags and cut ends)
VHH: QLQESGGGLVQAGDSLRLSCAASERTFARYVMGWFRQAPGKDREFVAHIYSSGSTAYEGSVKGRFTISRDNAKNTVYLQMNNLKPEDTAVYYCAARPRDTVWTSSASWGQGTQVTVSS
B6: HER2-11 (VHH, not shown: small tags and cut ends)
VHH: QVQLQESGGGLVQAGGSLRLSCAASGHTVSRNMMGWFRQAPGKEREFVSAIAWNGEDTYYAESVEGRFTISKDNVKNTIYLQMNSLKPEDTAVYYCAASLFRLWNSATAGNNRVYHYWGQGTQVTVSS
B7: HER2-11-hFc (Fc fusion)
chain: B6 VHH
notes: VHH gene cloned into pABG1-Fc (human Fc fragment), expressed in FreeStyle 293-F cells, Protein A purified; also called HER2-11-Fc; not shown: human Fc fragment of vector pABG1-Fc

Molecular target: HER2 protein expressed by SKBR3 cells (UniProt P04626)
Experiment: flow cytometry on SKBR3 cells

binding, binds:
B1, B2, B3, B4, B5, B6, B7

Molecular target: human HER2 protein (coated antigen of the specificity ELISA) (human) (UniProt P04626)
Experiment: ELISA, antigen coated at 200 ng per well, antibody 0.2 µg per well

binding, binds:
B2, B4, B7

Molecular target: HER2-His recombinant protein (human) (UniProt P04626)
Experiment: ELISA, HER2-His coated

binding, binds:
B2, B4, B7
